Test results taken from PubChem BioAssay AID493014 (National Center for Advancing Translational Sciences (NCATS), 2011).
Several values for one entry are separate records, joined by “and”; a condition that tells them apart may be missing. Identical values can stand only once. This is one part of the list. Further columns of the screen follow, without active or inactive calls. Most of these compounds were active or inconclusive in the main read-out, so they are no random draw. Potencies come from curve fits of mixed quality, noted in brackets.

Test: qHTS Assay to Find Inhibitors of Chronic Active B-Cell Receptor Signaling
Conditions: ABC-DLBCL IkBa-CBG/CBR reporter, luminescence ratio (green luciferase fused to IkBa over red control in TMD8 lymphoma cells), 4 h
Procedure, shortened: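 Concentration-response series (up to 46 uM) were applied to TMD8 dual-reporter cells for 4 h at 37C with doxycycline. Green/red ratio, after filter-overlap correction, defined %Activity; red signal alone was normalised to basal cells and zero luminescence.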

[1] = measured here: CBR red luminescence, cell number
[2] = measured here: IkBa-CBG green luminescence

| Compound | AC50 [1] | AC50 [2] |
| --- | --- | --- |
| Nc1c(N2CCOCC2)cc(Cl)c2nonc12 | 3.55 µM [rising, full curve, poor fit] | 8.91 µM [falling, partial curve, poor fit] |
| CCCc1c(O)nc(SCC(=O)NCCc2ccc(OC)c(OC)c2)[nH]c1=O | 2.91 µM [rising, partial curve, poor fit] |  |
| CCCCN1C(=O)c2ccc(C(=O)Nc3ccc(S(=O)(=O)N(C)C)cc3)cc2C1=O |  | 4.11 µM [rising, partial curve, poor fit] |
| COc1ccc(-n2c(SCC(=O)Nc3ccc(C(N)=O)cc3)nc3ccccc3c2=O)cc1OC | 6.31 µM [rising, single point] |  |
| C/C(=N\NC(=O)C1CC1)c1ccc(Cl)cc1 | 0.291 µM [rising, full curve, poor fit] |  |
| COc1cc(CC(=O)OCC(=O)Nc2cccc([N+](=O)[O-])c2)cc(OC)c1OC | 4.11 µM [rising, partial curve, poor fit] |  |
| Oc1cccc2ccc(/C=C/c3ccccc3Br)nc12 | 2.82 µM [rising, single point] |  |
| C[C@H](CO)N1C[C@H](C)[C@@H](CN(C)Cc2ccc(Oc3ccccc3)cc2)Oc2c(NC(=O)c3ccncc3)cccc2C1=O | 29.1 µM [falling, single point] |  |
| Cc1c(CC(C)C)nc(N)c(C#N)c1-c1ccccc1 | 5.8 µM [falling, single point] |  |
| O=C(O)c1ccc(N/N=C/c2cn(Cc3ccc(F)cc3)c3ccccc23)cc1 |  | 2 µM [rising, full curve, poor fit] |
| C=CCn1cnc2c(NCc3ccccc3)ncnc21 | 3.66 µM [falling, partial curve, poor fit] |  |
| COc1cccc(NC(=O)/C=C/c2ccc(S(=O)(=O)N3CCOCC3)cc2)c1 | 1.46 µM [falling, full curve] |  |
| O=C(Cc1ncc(C(F)(F)F)cc1Cl)Nc1ccc(F)cc1 | 0.00461 µM [falling, full curve, poor fit] |  |
| COc1ccccc1-c1nc(C(=O)NCC2CCCO2)cc2c1[nH]c1ccccc12 (stereo not given) | 0.631 µM [falling, full curve] |  |
| COc1cc(NC(=O)c2cccs2)c(C(=O)OCC(=O)NC(C)c2ccccc2)cc1OC (stereo not given) | 20.6 µM [falling, single point] |  |
| Cc1cc(C)c(S(=O)(=O)c2ccc(F)cc2C)c(Cl)n1 | 6.31 µM [falling, single point] |  |
| Cc1nnc(NC(=O)C2COc3ccccc3O2)s1 (stereo not given) | 35.5 µM [falling, single point] |  |
| C[C@]1(C(=O)NCCCNc2ncc(C(F)(F)F)cc2Cl)C=C[C@@H](Cc2ccccc2)N1C(=O)c1ccccc1 | 18.4 µM [falling, single point] |  |
| CC1=C(C(=O)OCc2ccc3c(c2)OCO3)C(c2ccc(F)cc2)NC(=O)N1 (stereo not given) | 35.5 µM [falling, partial curve, poor fit] |  |
| COc1ccc(C2(C(=O)N3CCCC3)CCOCC2)cc1OC | 29.1 µM [rising, single point] |  |
| COCCNc1c(-c2cc3ccc(C)c(C)c3[nH]c2=O)nc2ccccn12 | 5.62 µM [falling, partial curve] |  |
| COc1ccc(Cl)cc1NC(=S)N(Cc1ccc(C(=O)O)cc1)Cc1ccc(OC)c(OC)c1 | 7.94 µM [falling, partial curve, poor fit] |  |

| Compound | AC50 [1] | AC50 [2] |
| --- | --- | --- |
| N#C/C(=C\c1ccc(-c2ccccc2[N+](=O)[O-])o1)C(=O)N1CCOCC1 | 4.47 µM [rising, full curve, poor fit] |  |
| Cc1ccc(NS(=O)(=O)N2CCOCC2)cc1Cl | 15.8 µM [rising, partial curve, poor fit] |  |
| Cc1nc(-c2ccc(NC(=O)c3cccs3)cc2)cs1 | 2.31 µM [falling, full curve] |  |
| O=C(NCCCN1CCCCC1)C1CCN(c2ncnc3c2nc2n3CCCCC2)CC1 | 3.16 µM [falling, single point] |  |
| CN(C)c1ccc(Nc2nc(N)c3ccccc3n2)cc1 | 6.31 µM [falling, partial curve] |  |
| C/C(CC(=O)NCc1ccco1)=N\NC(=O)Cc1ccc(-c2ccccc2)cc1 | 29.1 µM [falling, single point] |  |
| CCSc1nsc(NC(=O)Nc2cccc(OC)c2)n1 | 10 µM [falling, partial curve, poor fit] |  |
| O=C(NCc1ccco1)Nc1ccc([N+](=O)[O-])cc1 | 11.2 µM [falling, partial curve, poor fit] and 35.5 µM [falling, single point] |  |
| O=C(NNC(=S)Nc1ccccc1)c1cccc(Br)c1 | 3.66 µM [falling, partial curve, poor fit] |  |
| CN1CCN(CCP(=O)(c2ccccc2)c2ccccc2)CC1 | 0.206 µM [rising, full curve, poor fit] |  |
| O=C(COC(=O)c1ccncc1)Nc1ccccc1 | 35.5 µM [falling, single point] |  |
| CC(=O)c1ccc(NC(=O)C2CCCN(S(=O)(=O)c3cccc4nonc34)C2)cc1 (stereo not given) | 17.8 µM [rising, partial curve, poor fit] |  |
| COCc1c(C(=O)OCC(=O)N2CCCC2=O)oc2ccccc12 | 23.1 µM [falling, partial curve, poor fit] |  |
| N#CCc1nc(CSc2nc3ccccc3o2)cs1 | 10 µM [rising, partial curve, poor fit] |  |
| COc1ccc(-c2ccc(/C=C(\NC(=O)c3ccccc3)C(=O)N3CCOCC3)o2)cc1 | 22.4 µM [falling, single point] |  |
| CCCCC(=O)NNC(=O)N1c2ccccc2Sc2ccccc21 | 1.58 µM [rising, full curve, poor fit] |  |
| COc1ccc(-c2nc3cc(C)ccn3c2NC2CCCCC2)cc1SC1CCCCC1 | 0.731 µM [falling, full curve] |  |
| CCOC(=O)C1(Cc2cccc(OC)c2)CCN(Cc2cccc(OC)c2OC)CC1 | 0.1 µM [rising, full curve, poor fit] |  |
| COc1ccc(C2/C(=C(/O)c3ccccc3)C(=O)C(=O)N2C)cc1OC (stereo not given) | 5.62 µM [rising, single point] |  |
| N/C(=N\OC(=O)C1CCCCC1)c1ccccn1 | 35.5 µM [falling, single point] |  |
| Cc1ccc(C(OCC(O)CNCc2ccc(F)cc2)c2ccccc2)cc1 (stereo not given) | 35.5 µM [falling, single point] |  |
| O=C(CCN1C(=O)/C(=C\c2cccs2)SC1=S)Nc1ccccn1 | 3.55 µM [falling, partial curve] |  |

| Compound | AC50 [1] | AC50 [2] |
| --- | --- | --- |
| COCCOC(=O)C1=C(C)NC(C)=C(C(=O)OCCOC)C1/C=C/c1ccccc1OC | 15.8 µM [rising, partial curve, poor fit] |  |
| Cc1ccc(C)c(NC(=O)c2nnn(Cc3ccccc3)c2N)c1 | 1.12 µM [falling, full curve, poor fit] |  |
| COc1cccc(Cl)c1NC(=O)N1CCN(c2cc(C)nc3ccccc23)CC1 | 35.5 µM [falling, single point] |  |
| CCOC(=O)C(=Cc1ccc(-c2ccsc2C(=O)OC)o1)C(=O)OCC | 7.94 µM [falling, partial curve, poor fit] |  |
| Cc1ccc(S(=O)(=O)N(CC(=O)NCc2cccs2)c2ccccc2)cc1 | 6.51 µM [falling, partial curve, poor fit] |  |
| O=C(CC1SC(N2CCOCC2)=NC1=O)Nc1cccc(C(F)(F)F)c1 (stereo not given) | 13 µM [rising, partial curve, poor fit] |  |
| COCCN1C(=O)c2ccccc2C(C(=O)NCCN(C)C)C1c1ccc(F)cc1 (stereo not given) | 11.2 µM [falling, single point] |  |
| CCCCC(=O)OCc1c(-c2ccccc2)ncc2ccccc12 | 16.4 µM [falling, partial curve] |  |
| CN(C)CC(=O)Nc1nc(-c2ccccc2)cs1 | 4.11 µM [falling, single point] |  |
| O=C(CCCc1nc(-c2ccc(Cl)cc2)no1)Nc1cccnc1 | 23.1 µM [falling, single point] |  |
| N#Cc1ccccc1OCC(=O)Nc1nnc(C2CC2)s1 | 10.3 µM [falling, partial curve, poor fit] |  |
| CCOc1ccc(C(=O)Nc2cc(C)c3c(=O)oc4ccccc4c3n2)cc1 | 20.6 µM [falling, partial curve, poor fit] |  |
| O=C(CSc1nnc(Nc2ccccc2F)s1)c1cc2ccccc2o1 | 25.9 µM [falling, single point] |  |
| NC(=O)CC(NC(=O)Cc1cccc2ccccc12)c1ccc(NCCOc2ccccc2)c([N+](=O)[O-])c1 (stereo not given) | 2 µM [falling, full curve] |  |
| CSc1cccc(NC(=O)c2cnn3ccccc23)c1 | 11.2 µM [falling, single point] |  |
| COc1ccccc1-c1ccc(NC2CCCC2)nn1 | 11.6 µM [falling, partial curve] |  |
| CCCCS(=O)Cc1ccccc1 (stereo not given) | 18.4 µM [rising, single point] |  |
| O=C(CSc1nc2ccccc2n1Cc1ccccc1)N/N=C/c1ccco1 | 23.1 µM [falling, single point] |  |
| Cc1cc(=O)[nH]c(SCC(=O)Nc2nc(-c3ccccc3)c(-c3ccccc3)o2)n1 | 0.146 µM [falling, full curve] |  |
| O=C(Nc1ncc2c(n1)-c1ccccc1CC2)c1cccs1 | 8.91 µM [falling, partial curve] |  |
